The values that follow come from paper PMC6781351.

Results are given in words; binding and its absence hold for the method and conditions named. Binding seen in cells or lysates may run through a third protein. A result given as binding can be weak or reduced; the word gives no strength. Where a sequence is shown, tags or fusion partners need not be part of it.

In this assay the target is T1, His-LSH (UniProt Q9NRZ9).
T1 sequence: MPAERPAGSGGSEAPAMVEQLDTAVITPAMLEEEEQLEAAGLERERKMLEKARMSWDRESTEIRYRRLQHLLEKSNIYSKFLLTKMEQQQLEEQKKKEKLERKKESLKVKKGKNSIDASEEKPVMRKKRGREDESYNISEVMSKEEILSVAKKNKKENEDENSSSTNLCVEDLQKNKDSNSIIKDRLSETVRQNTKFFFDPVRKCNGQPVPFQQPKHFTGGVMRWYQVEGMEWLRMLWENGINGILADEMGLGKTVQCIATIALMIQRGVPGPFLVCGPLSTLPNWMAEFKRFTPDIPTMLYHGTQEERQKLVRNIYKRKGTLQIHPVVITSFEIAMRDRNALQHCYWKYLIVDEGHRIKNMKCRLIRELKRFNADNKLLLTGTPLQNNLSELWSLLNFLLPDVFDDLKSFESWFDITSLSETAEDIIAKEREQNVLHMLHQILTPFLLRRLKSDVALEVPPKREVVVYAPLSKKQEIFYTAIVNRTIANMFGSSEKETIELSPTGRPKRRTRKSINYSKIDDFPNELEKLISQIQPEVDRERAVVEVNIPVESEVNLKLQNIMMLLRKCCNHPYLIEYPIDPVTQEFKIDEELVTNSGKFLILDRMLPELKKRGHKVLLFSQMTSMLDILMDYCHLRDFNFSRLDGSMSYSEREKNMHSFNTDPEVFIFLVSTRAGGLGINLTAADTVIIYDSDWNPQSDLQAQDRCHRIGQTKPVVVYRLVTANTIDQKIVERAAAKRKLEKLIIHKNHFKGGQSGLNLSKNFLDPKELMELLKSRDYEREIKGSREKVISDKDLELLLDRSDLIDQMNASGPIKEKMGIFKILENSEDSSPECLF
Nature of the assay: co-IP; anti-His antibody; HEK293T cells transfected with His-LSH plus one of the FLAG-PKM2 mutants.

Take FLAG-PKM2 ΔC55 (domain or fragment): the binding entry is recorded as “binds weakly”.

FLAG-PKM2 ΔC165 (domain or fragment): the binding entry is “no binding”.

Regarding FLAG-PKM2 ΔC110 (domain or fragment), the binding entry was “binds”.

FLAG-PKM2 ΔN110 (domain or fragment): the binding result is “binds”.
